Measurements reported in the supplement of paper PMC10849652.
The list shows a part of the results.

The chains behind the UniProt entries cited, without tags or fusion partners. Where a name states a change or a piece, a line headed by the entry shows the natural chain unless it says otherwise.
UniProt O60749: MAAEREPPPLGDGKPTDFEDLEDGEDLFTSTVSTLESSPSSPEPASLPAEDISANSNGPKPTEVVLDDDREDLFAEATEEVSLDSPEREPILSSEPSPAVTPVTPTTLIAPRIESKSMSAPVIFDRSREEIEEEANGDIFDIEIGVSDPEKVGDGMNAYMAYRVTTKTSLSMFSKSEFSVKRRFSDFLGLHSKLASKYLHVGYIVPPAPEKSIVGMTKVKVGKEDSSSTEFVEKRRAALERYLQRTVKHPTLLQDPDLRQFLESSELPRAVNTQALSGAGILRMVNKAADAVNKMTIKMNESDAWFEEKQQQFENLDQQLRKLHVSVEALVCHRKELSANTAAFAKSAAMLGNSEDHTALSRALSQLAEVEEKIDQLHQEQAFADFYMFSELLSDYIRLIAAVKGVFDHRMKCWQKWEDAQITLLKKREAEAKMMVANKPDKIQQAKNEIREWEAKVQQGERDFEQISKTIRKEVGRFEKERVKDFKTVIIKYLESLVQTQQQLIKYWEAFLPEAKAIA
UniProt O75971: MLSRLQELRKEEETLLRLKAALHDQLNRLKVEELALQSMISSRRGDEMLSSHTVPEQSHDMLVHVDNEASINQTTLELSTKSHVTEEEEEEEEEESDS
UniProt P58511: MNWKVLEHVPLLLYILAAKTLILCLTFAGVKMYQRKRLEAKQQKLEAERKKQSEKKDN
UniProt Q9Y5W7: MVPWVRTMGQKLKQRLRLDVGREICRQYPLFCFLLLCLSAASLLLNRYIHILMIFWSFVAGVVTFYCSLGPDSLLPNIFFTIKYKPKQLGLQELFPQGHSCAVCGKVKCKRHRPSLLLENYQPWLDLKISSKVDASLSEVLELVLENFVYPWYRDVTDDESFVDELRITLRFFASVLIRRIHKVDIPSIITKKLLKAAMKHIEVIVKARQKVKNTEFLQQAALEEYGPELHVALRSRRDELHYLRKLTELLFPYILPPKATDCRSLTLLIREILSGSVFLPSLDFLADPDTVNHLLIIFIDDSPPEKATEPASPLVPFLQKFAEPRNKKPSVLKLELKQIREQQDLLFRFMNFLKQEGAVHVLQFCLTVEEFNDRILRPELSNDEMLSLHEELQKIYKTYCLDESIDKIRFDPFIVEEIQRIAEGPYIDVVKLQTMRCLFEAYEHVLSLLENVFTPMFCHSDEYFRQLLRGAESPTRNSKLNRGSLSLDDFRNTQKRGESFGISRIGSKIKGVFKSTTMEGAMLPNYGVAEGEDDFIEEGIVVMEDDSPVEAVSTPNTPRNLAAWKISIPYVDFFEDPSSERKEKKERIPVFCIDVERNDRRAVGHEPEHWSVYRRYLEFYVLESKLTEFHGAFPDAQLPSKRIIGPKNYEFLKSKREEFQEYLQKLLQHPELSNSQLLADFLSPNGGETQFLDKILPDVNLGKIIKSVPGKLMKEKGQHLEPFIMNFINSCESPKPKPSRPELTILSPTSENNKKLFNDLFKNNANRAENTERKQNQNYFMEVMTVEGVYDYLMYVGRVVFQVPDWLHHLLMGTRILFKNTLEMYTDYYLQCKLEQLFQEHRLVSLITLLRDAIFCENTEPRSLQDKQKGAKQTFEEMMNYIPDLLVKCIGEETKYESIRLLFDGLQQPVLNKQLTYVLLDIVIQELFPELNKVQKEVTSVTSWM
UniProt Q6STE5, whole entry, looked up: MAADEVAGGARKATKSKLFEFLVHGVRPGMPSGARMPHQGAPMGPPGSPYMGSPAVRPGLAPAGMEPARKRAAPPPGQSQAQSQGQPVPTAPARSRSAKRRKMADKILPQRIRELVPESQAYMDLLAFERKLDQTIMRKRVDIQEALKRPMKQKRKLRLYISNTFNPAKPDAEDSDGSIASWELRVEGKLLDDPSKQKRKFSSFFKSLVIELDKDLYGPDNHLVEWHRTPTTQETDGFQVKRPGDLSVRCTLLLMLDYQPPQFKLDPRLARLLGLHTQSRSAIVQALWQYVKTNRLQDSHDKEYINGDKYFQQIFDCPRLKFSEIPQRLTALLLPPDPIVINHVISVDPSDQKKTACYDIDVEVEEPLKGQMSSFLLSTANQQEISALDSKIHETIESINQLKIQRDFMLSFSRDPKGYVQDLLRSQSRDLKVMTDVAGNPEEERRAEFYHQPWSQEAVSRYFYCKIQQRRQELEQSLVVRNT
UniProt Q8WV41: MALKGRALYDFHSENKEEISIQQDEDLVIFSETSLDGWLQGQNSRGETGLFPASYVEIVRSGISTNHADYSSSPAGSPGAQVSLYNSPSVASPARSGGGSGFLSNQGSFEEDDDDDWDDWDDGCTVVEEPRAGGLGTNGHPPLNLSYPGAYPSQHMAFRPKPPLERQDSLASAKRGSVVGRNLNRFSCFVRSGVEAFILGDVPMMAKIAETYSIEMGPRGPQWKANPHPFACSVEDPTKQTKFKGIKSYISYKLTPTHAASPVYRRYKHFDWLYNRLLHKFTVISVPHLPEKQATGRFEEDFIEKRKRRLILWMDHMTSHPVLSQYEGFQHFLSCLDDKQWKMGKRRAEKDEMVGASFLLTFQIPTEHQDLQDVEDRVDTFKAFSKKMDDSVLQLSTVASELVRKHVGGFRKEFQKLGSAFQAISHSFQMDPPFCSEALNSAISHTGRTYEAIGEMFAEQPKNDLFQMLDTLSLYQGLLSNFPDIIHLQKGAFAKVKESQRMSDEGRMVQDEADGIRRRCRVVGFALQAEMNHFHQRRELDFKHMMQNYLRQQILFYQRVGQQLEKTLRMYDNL
UniProt Q6X4U4: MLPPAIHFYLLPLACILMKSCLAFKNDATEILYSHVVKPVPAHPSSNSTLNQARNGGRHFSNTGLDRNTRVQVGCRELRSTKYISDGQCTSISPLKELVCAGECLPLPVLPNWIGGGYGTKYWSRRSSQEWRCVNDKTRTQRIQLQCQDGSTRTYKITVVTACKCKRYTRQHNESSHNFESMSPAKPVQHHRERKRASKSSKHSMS
UniProt Q92966: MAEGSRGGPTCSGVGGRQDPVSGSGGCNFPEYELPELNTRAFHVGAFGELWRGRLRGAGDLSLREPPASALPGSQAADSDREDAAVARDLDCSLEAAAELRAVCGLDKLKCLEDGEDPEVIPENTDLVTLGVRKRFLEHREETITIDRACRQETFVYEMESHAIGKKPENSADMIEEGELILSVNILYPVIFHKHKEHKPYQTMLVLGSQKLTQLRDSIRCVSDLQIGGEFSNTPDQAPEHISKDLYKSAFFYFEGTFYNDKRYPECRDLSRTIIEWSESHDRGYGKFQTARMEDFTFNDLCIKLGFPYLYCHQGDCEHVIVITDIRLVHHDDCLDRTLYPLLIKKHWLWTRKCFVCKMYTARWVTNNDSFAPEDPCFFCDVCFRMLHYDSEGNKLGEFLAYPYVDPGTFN
UniProt Q9Y5W8: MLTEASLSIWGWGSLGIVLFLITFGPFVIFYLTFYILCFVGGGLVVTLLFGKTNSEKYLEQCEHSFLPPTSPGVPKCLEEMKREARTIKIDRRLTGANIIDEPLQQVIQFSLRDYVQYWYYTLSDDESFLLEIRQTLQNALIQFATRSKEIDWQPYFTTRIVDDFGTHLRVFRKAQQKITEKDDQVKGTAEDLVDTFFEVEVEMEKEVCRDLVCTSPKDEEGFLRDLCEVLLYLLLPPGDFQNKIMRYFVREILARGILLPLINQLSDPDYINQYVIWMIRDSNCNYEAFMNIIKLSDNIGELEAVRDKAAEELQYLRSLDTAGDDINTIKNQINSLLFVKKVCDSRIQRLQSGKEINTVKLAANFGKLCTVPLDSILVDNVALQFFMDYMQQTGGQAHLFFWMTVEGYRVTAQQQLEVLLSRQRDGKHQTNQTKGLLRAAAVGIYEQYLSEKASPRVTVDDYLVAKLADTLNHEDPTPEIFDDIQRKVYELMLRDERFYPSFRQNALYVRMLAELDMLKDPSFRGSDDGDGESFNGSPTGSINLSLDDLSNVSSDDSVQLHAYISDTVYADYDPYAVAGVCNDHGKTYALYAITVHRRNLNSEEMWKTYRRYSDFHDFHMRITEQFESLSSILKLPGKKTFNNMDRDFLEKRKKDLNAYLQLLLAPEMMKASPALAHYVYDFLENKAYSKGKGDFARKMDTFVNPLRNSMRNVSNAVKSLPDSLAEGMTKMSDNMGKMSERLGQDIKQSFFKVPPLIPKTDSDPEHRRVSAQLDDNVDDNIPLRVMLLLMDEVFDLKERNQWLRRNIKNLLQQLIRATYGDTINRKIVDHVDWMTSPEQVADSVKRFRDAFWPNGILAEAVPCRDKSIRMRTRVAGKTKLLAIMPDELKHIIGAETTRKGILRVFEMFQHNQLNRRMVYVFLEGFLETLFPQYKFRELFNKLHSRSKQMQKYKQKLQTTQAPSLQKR
UniProt Q16560: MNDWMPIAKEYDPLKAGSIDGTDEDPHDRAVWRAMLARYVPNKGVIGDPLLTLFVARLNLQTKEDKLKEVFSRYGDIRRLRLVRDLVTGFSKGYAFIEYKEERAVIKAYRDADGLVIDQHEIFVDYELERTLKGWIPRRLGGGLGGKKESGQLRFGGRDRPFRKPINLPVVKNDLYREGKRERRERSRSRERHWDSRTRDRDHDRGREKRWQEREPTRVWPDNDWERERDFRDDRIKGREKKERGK
UniProt Q02086: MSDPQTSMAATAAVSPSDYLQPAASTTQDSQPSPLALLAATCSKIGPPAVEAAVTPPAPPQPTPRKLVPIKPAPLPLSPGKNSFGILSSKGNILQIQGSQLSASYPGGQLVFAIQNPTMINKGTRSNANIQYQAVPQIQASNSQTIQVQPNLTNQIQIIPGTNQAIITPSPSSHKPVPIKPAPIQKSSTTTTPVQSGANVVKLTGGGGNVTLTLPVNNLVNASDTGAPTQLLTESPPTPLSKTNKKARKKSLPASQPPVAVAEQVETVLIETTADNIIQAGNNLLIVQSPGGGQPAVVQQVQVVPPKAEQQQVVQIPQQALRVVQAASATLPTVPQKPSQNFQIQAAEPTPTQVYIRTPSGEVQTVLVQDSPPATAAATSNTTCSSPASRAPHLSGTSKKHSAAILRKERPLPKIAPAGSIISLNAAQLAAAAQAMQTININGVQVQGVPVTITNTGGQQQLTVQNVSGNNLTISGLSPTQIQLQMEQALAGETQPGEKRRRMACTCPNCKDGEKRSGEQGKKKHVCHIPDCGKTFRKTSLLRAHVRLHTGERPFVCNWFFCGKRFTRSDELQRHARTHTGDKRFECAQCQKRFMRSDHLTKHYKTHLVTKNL
UniProt Q9Y5X0: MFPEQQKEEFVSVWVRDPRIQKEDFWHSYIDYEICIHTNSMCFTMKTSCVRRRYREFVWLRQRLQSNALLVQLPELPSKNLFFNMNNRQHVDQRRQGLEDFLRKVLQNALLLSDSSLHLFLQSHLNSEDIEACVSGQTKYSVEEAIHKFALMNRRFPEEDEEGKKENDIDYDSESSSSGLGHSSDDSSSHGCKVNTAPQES
UniProt Q8TAQ2, whole entry, looked up: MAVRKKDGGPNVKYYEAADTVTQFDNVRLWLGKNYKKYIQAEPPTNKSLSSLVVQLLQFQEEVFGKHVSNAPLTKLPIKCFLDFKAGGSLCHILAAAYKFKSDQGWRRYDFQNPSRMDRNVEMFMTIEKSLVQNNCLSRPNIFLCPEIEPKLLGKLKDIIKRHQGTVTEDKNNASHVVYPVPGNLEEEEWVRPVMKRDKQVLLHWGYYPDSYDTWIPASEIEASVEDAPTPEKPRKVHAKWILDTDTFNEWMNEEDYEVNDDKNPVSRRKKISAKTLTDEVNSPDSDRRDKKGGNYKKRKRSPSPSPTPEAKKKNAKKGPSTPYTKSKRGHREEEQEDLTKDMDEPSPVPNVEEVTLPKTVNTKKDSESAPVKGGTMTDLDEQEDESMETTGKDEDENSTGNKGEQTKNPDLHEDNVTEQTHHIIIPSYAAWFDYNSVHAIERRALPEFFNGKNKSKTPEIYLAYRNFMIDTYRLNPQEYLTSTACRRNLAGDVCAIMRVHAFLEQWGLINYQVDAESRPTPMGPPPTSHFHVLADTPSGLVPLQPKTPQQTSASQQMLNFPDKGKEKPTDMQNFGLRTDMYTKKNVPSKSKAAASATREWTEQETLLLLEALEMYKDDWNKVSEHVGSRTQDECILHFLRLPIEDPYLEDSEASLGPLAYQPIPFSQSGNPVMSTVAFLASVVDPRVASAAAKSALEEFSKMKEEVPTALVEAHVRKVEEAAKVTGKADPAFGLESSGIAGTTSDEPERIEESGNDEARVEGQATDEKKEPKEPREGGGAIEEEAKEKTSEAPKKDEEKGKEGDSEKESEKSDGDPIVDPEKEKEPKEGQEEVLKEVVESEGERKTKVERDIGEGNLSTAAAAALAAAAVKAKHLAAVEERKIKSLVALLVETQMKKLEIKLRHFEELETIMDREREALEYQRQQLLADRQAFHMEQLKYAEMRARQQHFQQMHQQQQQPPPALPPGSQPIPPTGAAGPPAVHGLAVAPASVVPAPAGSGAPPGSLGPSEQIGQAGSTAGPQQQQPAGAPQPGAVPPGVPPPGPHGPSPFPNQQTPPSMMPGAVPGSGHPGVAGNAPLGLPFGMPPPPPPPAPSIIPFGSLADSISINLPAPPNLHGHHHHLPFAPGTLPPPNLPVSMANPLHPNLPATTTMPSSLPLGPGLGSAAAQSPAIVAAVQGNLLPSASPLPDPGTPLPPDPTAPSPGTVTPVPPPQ

Compound: CNC(=O)c1ccc(Nc2ncc(C(F)(F)F)c(NCc3nccnc3N(C)S(C)(=O)=O)n2)cc1 [defactinib]
Assay: log2 fold change, soluble protein after heating vs DMSO (PISA); higher = thermal stabilisation; K562 lysate, 10 uM; active = over 0.2 and 3.5 SD of the protein, either way, in both replicates (recomputed)
In short: (§1)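 The values are log-two fold changes in thermal stability compared with solvent controls and come from duplicates. They were obtained by TMTpro 16plex LC-MS/MS, with channel sums equalised, on the supernatant after 21,000xg for 90 min. That supernatant came from crude K562 extract at 1 mg/mL protein treated with 10 μM compound for 30 min, heated for 3 min across 48°C-58°C, pooled and brought to 0.5% NP-40 at 4°C.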

Row | Target | log2 fold change
1 | SMPDL3A (UniProt Q92484) | inactive: -0.068
2 | SOD3 (UniProt P08294) | inactive: -0.039
3 | SNX2 isoform 2 (UniProt O60749) | inactive: -0.128
4 | SMYD3 (UniProt Q9H7B4) | inactive: 0.036
5 | SNAPC5 (UniProt O75971) | inactive: 0.08
6 | SMC1B isoform 3 (UniProt Q8NDV3) | inactive: 0.147
7 | SOX11 (UniProt P35716) | inactive: 0.007
8 | SOX12 (UniProt O15370) | inactive: -0.081
9 | SPAG1 (UniProt Q07617) | inactive: -0.014
10 | SNAPC4 (UniProt Q5SXM2) | inactive: -0.065
11 | SNRPD2 (UniProt K7EJB5) | inactive: -0.074
12 | SMIM11A (UniProt P58511) | inactive: 0.224
13 | SNX14 (UniProt Q9Y5W7) | inactive: -0.011

Compound: CNc1nc(-c2ccc3c(N)n[nH]c3c2)cc(N2C[C@@H](C(=O)NC3CCCCC3)CC[C@H]2C)n1
Assay: as above
In short: as §1

Row | Target | log2 fold change
14 | SMARCD3 (UniProt Q6STE5) | inactive: 0.122
15 | SMPD1 (UniProt P17405) | inactive: -0.01
16 | SNX33 (UniProt Q8WV41) | inactive: -0.046
17 | SOSTDC1 isoform 2 (UniProt Q6X4U4) | inactive: 0.271
18 | SNX25 (UniProt Q9H3E2) | inactive: 0.086
19 | SNX2 isoform 2 (UniProt O60749) | inactive: 0.512
20 | SNAPC3 (UniProt Q92966) | inactive: 0.263
21 | SMYD3 (UniProt Q9H7B4) | inactive: 0.028
22 | SNX13 (UniProt Q9Y5W8) | inactive: 0.122
23 | SMC1B isoform 3 (UniProt Q8NDV3) | inactive: 0.028
24 | SMOX isoform 6 (UniProt Q9NWM0) | inactive: 0.048
25 | SOX12 (UniProt O15370) | inactive: -0.19
26 | SNRPD2 (UniProt K7EJB5) | inactive: 0.054
27 | SNRNP35 isoform 2 (UniProt Q16560) | inactive: 0.067
28 | SP2 (UniProt Q02086) | inactive: 0.126
29 | SNX10 (UniProt Q9Y5X0) | inactive: -0.061
30 | SMARCC2 isoform 3 (UniProt Q8TAQ2) | inactive: -0.019
31 | SNX14 (UniProt Q9Y5W7) | inactive: 0.464
